PubChem BioAssay AID743454 – Peter MacCallum Cancer Centre – 2014
The deposit covers about 18,000 reagents; this is a random part of them. Over the whole deposit, 450 (2.5%) were called active. 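Single biological run; no consistent viability z cut-off exists, so the class columns, not z-scores, define the calls.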 The numbers tell different reagents against one gene apart.

- Aim: 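Knock-downs lowering viability or raising caspase 3/7 activity in vorinostat-treated resistant cells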 (primary screen)
- Cells: human HCT116-VR colon cancer cells, selected for vorinostat resistance
- Reagent: siRNA pool against human genes, 40 nM siRNA pool
- Time to read-out: vorinostat for 24 h, read-out about 72 h after transfection
- Challenge: vorinostat at 2.5 µM final
- Measured: 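Two measures, CellTiter-Fluor viability and luminescent caspase 3/7 activity, each as fold change against same-plate mock wells, mean of duplicates, then screen-wide robust z-score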
- Scale: viability robust z-score: higher = more viable cells than screen typical; caspase robust z-score: higher = more caspase 3/7 activity than screen typical
- Rule for the call: 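Hits are knock-downs in viability class RV1/RV2 or caspase class CA1/CA2, excluding ones that killed cells in the no-drug cell-count arm; hits then retested with single siRNAs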

no.	gene	pool no.	viability hit class	caspase hit class	viability robust z-score	caspase robust z-score	outcome
1	POLR2F	1	no change	no change	-5.34	1.68	inactive
2	YIPF2	1	no change	no change	-0.04	0.17	inactive
3	ABCC4	1	no change	no change	-1.61	3.12	inactive
4	FOXO3	1	no change	no change	-0.33	-0.89	inactive
5	CHRNG	1	no change	no change	-0.57	-0.32	inactive
6	CIROZ	1	no change	no change	-0.61	1.34	inactive
7	TCEAL3	1	no change	no change	0.34	0.37	inactive

Copied from the list:
FOXO3, viability hit class → no change
Value of POLR2F under “viability hit class”: no change
Entry for CIROZ under “viability hit class”: no change
Value for CHRNG under “viability robust z-score”: -0.57

The list goes on.
no.	gene	pool no.	viability hit class	caspase hit class	viability robust z-score	caspase robust z-score	outcome
8	DDI2	1	no change	no change	-0.26	0.68	inactive
9	DDI2	2	no change	no change	0.76	-0.36	inactive
10	PHF20L1	1	no change	no change	0.36	-0.56	inactive
11	TMEM135	1	no change	no change	-0.11	-1.1	inactive
12	KANSL3	1	no change	no change	0.66	-0.17	inactive
13	GJA4	1	no change	no change	0.07	2.44	inactive
14	KIAA0753	1	no change	no change	0.25	-0.88	inactive
15	CTRL	1	no change	no change	1.13	-0.22	inactive
16	BAGE4	1	no change	no change	-2.5	2.31	inactive
17	PNPLA5	1	no change	no change	-0.39	-0.29	inactive
18	ATPAF2	1	no change	no change	-2.21	-1.08	inactive
19	FAM153A	1	no change	no change	-1.34	-1.67	inactive
20	ANAPC1	1	no change	no change	-0.61	1.45	inactive
21	HNRNPH1	1	no change	no change	-1.16	-0.89	inactive
22	ST3GAL2	1	no change	no change	0.26	1	inactive
23	SNAPIN	1	no change	no change	0.89	0.46	inactive
